Some of the results follow.
compound: COC1=CC=C(C=C1)CN2C=CC3=C2C=C(C=C3)C(=O)NO; test: log2 fold change, soluble protein after heating vs DMSO (PISA); higher = thermal stabilisation; K562 cells, 10 uM, 30 min; active = over 0.2 and 3.5 SD of the protein, either way, in both replicates (recomputed)
Method in brief: (§1)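 Soluble protein was quantified by TMTpro 16plex LC-MS/MS after channel sums were equalised. It was obtained as the supernatant after 21,000xg for 90 min from pooled aliquots of K562 cells (2×10^6 cells/mL, 10 μM compound, 30 min) heated for 3 min across 48°C-58°C and extracted in PBS with 0.5% NP-40 at 4°C. Thermal stability values are relative to control samples and come from duplicates. They are given as log2 fold changes.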

Chains of the proteins cited; added tags and fusions are not shown. Lines headed by an entry give the natural chain unless they say otherwise; changes in a name come on top.
UniProt Q9Y5J7: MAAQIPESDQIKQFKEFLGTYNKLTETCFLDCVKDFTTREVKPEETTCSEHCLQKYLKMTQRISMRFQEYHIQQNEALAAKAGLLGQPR
UniProt P15923: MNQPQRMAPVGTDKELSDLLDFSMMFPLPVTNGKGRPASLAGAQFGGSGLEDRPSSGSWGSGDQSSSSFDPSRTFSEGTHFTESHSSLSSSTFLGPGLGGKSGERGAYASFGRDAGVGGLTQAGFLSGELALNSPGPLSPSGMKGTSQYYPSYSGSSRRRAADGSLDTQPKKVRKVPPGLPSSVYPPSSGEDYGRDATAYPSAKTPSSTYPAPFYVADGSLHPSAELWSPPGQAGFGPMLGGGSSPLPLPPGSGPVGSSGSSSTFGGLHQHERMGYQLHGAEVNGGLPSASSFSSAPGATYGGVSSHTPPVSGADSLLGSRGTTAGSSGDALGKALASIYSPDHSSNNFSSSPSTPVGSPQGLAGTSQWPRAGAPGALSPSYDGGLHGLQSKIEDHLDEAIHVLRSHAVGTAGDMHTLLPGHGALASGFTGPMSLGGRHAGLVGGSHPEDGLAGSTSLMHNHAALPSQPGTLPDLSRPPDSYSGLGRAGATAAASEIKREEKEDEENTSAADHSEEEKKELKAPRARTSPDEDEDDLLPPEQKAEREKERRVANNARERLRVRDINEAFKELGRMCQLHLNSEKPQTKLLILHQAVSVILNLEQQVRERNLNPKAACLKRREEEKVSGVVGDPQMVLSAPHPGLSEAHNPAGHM
UniProt Q9UP52: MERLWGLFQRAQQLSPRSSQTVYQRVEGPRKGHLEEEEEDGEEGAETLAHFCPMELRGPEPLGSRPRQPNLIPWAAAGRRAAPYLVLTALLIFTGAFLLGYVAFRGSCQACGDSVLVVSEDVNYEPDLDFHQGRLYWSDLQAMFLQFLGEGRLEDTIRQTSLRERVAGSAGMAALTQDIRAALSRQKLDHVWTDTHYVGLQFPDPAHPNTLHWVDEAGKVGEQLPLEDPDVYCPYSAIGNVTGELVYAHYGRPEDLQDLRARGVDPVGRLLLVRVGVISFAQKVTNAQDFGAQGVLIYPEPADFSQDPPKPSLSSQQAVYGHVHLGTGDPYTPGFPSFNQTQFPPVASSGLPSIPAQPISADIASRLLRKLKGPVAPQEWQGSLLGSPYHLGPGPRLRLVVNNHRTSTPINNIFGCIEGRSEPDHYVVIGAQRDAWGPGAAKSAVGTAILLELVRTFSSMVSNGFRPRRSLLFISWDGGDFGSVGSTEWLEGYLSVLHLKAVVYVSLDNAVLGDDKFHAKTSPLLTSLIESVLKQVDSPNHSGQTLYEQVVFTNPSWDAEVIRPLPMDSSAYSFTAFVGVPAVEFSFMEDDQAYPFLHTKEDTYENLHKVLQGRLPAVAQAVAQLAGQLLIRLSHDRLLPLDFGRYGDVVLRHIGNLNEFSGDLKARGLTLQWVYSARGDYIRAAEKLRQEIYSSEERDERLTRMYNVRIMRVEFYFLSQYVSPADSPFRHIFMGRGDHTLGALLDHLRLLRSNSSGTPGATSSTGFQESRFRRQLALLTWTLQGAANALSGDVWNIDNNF
UniProt Q9BTF0: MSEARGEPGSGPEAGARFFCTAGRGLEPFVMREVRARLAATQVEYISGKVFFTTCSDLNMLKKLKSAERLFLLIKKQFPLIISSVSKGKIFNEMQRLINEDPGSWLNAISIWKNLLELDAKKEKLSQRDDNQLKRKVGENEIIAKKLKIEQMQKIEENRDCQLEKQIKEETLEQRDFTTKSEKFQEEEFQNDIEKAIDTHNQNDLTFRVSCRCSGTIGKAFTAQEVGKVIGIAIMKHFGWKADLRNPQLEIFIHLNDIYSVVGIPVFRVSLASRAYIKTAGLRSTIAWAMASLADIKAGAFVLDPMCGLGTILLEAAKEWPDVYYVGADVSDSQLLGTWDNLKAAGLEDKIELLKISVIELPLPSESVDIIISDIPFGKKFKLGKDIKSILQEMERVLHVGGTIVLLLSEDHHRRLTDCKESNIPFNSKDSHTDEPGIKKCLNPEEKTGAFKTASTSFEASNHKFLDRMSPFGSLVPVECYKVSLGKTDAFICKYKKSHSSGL
UniProt Q15814: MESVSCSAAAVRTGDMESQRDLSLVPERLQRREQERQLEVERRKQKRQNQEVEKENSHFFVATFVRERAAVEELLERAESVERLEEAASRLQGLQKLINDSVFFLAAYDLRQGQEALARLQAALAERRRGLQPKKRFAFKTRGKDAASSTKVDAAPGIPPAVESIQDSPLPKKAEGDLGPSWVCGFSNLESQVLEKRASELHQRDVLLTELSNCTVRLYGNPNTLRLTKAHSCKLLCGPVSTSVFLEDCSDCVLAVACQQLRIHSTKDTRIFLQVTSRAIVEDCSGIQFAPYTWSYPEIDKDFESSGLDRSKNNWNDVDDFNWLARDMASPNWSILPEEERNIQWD
UniProt Q9UGI8: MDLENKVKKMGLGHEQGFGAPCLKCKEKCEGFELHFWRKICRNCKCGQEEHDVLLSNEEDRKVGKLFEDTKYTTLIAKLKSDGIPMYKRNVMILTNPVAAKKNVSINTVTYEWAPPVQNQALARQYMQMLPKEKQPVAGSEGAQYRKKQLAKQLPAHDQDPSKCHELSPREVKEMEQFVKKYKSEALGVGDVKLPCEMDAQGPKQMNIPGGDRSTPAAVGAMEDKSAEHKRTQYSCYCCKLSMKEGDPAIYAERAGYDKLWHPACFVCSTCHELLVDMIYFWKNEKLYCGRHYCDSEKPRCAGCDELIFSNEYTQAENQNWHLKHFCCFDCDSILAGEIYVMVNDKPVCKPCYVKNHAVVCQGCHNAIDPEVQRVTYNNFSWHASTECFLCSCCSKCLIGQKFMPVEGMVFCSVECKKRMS
UniProt O75347: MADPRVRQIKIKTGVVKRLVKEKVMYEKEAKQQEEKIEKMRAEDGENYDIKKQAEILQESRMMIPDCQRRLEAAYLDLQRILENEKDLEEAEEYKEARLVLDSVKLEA
UniProt Q01085: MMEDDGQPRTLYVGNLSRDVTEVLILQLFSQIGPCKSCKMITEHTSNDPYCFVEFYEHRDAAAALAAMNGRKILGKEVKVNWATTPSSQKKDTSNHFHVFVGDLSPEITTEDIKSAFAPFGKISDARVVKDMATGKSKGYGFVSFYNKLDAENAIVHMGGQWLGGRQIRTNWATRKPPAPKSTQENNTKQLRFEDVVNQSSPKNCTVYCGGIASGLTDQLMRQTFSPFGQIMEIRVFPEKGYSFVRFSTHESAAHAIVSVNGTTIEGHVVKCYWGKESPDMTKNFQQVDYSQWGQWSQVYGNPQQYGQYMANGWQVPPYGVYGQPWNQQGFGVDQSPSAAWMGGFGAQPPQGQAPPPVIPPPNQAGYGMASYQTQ
UniProt Q04726: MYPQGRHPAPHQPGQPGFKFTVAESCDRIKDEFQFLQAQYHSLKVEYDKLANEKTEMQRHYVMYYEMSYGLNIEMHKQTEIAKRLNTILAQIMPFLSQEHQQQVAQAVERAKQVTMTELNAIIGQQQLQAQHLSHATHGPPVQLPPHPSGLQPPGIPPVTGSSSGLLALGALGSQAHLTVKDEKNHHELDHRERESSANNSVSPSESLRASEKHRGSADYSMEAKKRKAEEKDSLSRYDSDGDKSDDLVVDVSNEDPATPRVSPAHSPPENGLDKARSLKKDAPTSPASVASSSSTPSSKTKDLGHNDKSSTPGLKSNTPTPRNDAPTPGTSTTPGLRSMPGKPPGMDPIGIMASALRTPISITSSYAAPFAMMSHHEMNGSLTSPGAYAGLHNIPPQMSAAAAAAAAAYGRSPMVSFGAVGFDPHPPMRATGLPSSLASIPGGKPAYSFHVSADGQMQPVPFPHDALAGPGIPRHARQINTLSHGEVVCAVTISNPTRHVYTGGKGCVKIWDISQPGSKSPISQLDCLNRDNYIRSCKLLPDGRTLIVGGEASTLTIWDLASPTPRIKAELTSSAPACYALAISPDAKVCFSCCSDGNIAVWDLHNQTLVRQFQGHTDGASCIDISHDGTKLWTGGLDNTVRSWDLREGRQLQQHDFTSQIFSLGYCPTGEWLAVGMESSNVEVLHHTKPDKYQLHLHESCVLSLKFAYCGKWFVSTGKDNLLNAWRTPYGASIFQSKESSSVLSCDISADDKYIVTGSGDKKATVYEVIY
UniProt P01137, whole entry, looked up: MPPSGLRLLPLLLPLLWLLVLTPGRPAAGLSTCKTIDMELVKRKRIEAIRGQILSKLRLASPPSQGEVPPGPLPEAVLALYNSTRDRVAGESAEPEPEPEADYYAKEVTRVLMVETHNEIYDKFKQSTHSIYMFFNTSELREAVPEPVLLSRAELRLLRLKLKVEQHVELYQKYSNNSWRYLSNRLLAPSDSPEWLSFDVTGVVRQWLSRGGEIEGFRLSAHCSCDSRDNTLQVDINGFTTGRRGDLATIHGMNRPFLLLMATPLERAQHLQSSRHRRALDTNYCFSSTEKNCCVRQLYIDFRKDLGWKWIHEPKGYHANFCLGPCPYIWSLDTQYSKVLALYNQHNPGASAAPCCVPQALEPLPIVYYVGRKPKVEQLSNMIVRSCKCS
UniProt O95551: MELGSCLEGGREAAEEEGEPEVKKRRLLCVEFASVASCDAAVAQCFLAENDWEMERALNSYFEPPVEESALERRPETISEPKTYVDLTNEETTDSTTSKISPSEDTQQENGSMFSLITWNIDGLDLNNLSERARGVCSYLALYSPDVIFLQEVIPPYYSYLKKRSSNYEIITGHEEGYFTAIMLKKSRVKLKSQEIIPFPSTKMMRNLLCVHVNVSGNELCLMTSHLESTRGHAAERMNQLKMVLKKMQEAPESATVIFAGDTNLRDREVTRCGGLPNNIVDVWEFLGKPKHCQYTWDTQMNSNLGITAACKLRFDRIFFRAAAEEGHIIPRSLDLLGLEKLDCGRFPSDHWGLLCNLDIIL
UniProt Q9NZ01: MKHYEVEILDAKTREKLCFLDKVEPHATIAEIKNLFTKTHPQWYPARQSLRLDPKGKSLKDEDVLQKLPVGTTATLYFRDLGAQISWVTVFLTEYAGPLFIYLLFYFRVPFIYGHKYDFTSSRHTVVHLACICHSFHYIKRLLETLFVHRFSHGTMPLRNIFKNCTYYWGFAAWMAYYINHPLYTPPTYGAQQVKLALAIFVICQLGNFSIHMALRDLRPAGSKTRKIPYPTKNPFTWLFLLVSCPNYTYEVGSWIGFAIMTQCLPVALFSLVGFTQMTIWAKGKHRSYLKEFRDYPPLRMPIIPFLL
UniProt Q9Y584: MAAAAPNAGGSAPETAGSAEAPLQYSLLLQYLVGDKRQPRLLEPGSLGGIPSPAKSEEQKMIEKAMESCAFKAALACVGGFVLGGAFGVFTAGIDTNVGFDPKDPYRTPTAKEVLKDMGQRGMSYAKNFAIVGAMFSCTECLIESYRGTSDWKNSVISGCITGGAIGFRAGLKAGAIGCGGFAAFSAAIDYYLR
UniProt Q9Y5L4: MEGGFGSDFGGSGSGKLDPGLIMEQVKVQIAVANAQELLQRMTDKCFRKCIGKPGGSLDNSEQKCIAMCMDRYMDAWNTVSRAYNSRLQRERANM
UniProt O14776: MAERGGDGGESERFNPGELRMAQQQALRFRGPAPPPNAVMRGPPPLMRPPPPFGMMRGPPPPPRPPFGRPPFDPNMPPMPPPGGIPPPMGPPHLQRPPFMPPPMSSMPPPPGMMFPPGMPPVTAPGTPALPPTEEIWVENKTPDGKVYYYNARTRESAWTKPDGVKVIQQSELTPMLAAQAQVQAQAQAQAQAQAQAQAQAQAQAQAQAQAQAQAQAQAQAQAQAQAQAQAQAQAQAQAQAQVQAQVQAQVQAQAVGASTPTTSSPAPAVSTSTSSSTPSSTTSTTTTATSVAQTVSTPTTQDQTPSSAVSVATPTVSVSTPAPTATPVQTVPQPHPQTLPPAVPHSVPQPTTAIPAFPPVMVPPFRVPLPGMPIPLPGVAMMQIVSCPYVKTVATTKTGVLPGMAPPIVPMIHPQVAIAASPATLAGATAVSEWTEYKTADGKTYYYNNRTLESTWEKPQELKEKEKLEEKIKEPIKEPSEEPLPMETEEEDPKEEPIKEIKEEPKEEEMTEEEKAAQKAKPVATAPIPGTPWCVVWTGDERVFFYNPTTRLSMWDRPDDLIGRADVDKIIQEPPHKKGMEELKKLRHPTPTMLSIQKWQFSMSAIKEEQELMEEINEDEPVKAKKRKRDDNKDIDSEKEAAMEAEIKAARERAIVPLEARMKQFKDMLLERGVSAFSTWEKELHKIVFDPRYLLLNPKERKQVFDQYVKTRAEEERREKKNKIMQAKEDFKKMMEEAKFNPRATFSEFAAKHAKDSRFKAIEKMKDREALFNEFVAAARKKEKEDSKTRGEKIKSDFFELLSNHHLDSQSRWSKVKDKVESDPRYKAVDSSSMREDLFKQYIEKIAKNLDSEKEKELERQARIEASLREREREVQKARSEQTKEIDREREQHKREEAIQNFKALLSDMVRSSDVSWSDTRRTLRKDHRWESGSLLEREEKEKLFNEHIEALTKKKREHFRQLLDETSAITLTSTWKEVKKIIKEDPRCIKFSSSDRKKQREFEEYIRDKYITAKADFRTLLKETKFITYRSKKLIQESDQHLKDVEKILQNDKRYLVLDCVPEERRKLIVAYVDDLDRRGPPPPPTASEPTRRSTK

log2 fold change, inactive:
TEX264 (UniProt Q9Y6I9) 0.07
THOP1 (UniProt P52888) 0.047
TGFBRAP1 (UniProt Q8WUH2) 0.092
TIMM9 (UniProt Q9Y5J7) 0.051
TCF3 (UniProt P15923) -0.009
TIMM10 (UniProt P62072) -0.043
TFR2 (UniProt Q9UP52) -0.066
TBL1XR1 (UniProt Q9BZK7) -0.018
TBC1D9B (UniProt Q66K14) -0.037
TKFC (UniProt Q3LXA3) -0.001
TGFBR1 isoform 2 (UniProt P36897) 0.004
TCOF1 isoform 4 (UniProt Q13428) 0.002
TIMM8A (UniProt O60220) -0.124
THUMPD2 (UniProt Q9BTF0) 0
TFB2M (UniProt Q9H5Q4) -0.044
TIMM17A (UniProt Q99595) 0.016
TFRC (UniProt P02786) 0.009
THG1L (UniProt Q9NWX6) -0.002
TBCC (UniProt Q15814) -0.008
TES (UniProt Q9UGI8) 0.019
TELO2 (UniProt Q9Y4R8) -0.026
TBCA (UniProt O75347) -0.116
TBC1D4 (UniProt O60343) 0.031
TIAL1 isoform 2 (UniProt Q01085) 0.033
TLE3 isoform 4 (UniProt Q04726) 0.027
TGM2 (UniProt P21980) -0.002
TGFB1 (UniProt P01137) -0.008
TDP2 isoform 2 (UniProt O95551) -0.008
TECR (UniProt Q9NZ01) -0.031
TIMM22 (UniProt Q9Y584) 0.069
THBS4 (UniProt P35443) -0.06
TERF2 (UniProt Q15554) 0.042
TICAM2 isoform 2 (UniProt Q86XR7) 0.086
TIMM13 (UniProt Q9Y5L4) 0.206
TBL1X (UniProt O60907) -0.026
TF (UniProt P02787) -0.135
THOC5 (UniProt Q13769) -0.055
TBC1D15 isoform 3 (UniProt Q8TC07) -0.063
TESC (UniProt Q96BS2) 0
TCERG1 (UniProt O14776) 0.104

compound: CON(C)C(=O)N1N=C(c2cc(F)ccc2F)S[C@@]1(CCCN)c1ccccc1 [filanesib]; test: as above
Method in brief: as §1

log2 fold change, inactive:
TEX264 (UniProt Q9Y6I9) -0.169
THOP1 (UniProt P52888) -0.026
TGFBRAP1 (UniProt Q8WUH2) -0.006
TIMM9 (UniProt Q9Y5J7) -0.231
TCF3 (UniProt P15923) -0.067
TIMM10 (UniProt P62072) -0.038
TFR2 (UniProt Q9UP52) 0.011
TBL1XR1 (UniProt Q9BZK7) -0.022
TBC1D9B (UniProt Q66K14) 0.151
TKFC (UniProt Q3LXA3) -0.022
TGFBR1 isoform 2 (UniProt P36897) -0.001
TCOF1 isoform 4 (UniProt Q13428) 0.028
TIMM8A (UniProt O60220) 0.055
THUMPD2 (UniProt Q9BTF0) 0.05
TFB2M (UniProt Q9H5Q4) -0.074
TIMM17A (UniProt Q99595) -0.021
TFRC (UniProt P02786) -0.013
THG1L (UniProt Q9NWX6) -0.009
TBCC (UniProt Q15814) -0.049
TES (UniProt Q9UGI8) -0.033
TELO2 (UniProt Q9Y4R8) 0.113
TBCA (UniProt O75347) -0.039
TBC1D4 (UniProt O60343) -0.065
TIAL1 isoform 2 (UniProt Q01085) 0.037
TLE3 isoform 4 (UniProt Q04726) -0.08
TGM2 (UniProt P21980) -0.053
TGFB1 (UniProt P01137) 0.034
TDP2 isoform 2 (UniProt O95551) -0.096
TECR (UniProt Q9NZ01) -0.169
TIMM22 (UniProt Q9Y584) -0.039
THBS4 (UniProt P35443) 0.115
TERF2 (UniProt Q15554) 0.147
TICAM2 isoform 2 (UniProt Q86XR7) -0.106
TIMM13 (UniProt Q9Y5L4) -0.091
TBL1X (UniProt O60907) -0.013
TF (UniProt P02787) 0.094
THOC5 (UniProt Q13769) 0.062
TBC1D15 isoform 3 (UniProt Q8TC07) 0
TESC (UniProt Q96BS2) 0.063
TCERG1 (UniProt O14776) -0.008
